# According to paper PMC6270420, “Antibacterial Activity of Salicylanilide 4-(Trifluoromethyl)benzoates” (Molecules, 2013):
# System: HepG2 cells
# Test: Cytotoxicity evaluation (CellTiter 96 MTS)
# Type: cell-based, human
# Protocol: Seven esters and their parent salicylanilides with the most robust antimicrobial activity were tested for cytotoxicity in the human hepatocellular liver carcinoma cell line HepG2 (passages 21–24; ECACC, Salisbury, UK) using a standard colorimetric method measuring a tetrazolium salt reduction (CellTiter(R) 96 AQueous One Solution Assay, Promega G3580, Madison, WI, USA).
# The cells were routinely cultured in Minimum Essentials Eagle Medium (Sigma-Aldrich, Darmstadt, Germany) supplemented with 10% foetal bovine serum (PAA; Biotech, Prague, Czech Republic), 1% of L-glutamine solution (Sigma-Aldrich), and non-essential amino acids solution (Sigma-Aldrich) in a humidified atmosphere containing 5% CO2 at 37 °C. For subculturing, the cells were harvested after trypsin/EDTA (Sigma-Aldrich) treatment at 37 °C. The cells treated with the tested substances were used as experimental groups. Untreated HepG2 cells were used as control groups.
# The cells were seeded in density 1 × 10^4 cells per well in a 96-well plate with microscopic control. Next day, the cells were treated with each of the tested substances. […] The most of the tested compounds were prepared in incubation concentrations of 0.01–20 µM in triplicates. 4-(Trifluoromethyl)benzoic acid was applied in the concentrations of 10–4,000 µM in triplicates. The following types of controls were included: determination of 100% viability and 0% viability (the cells treated by 10% DMSO), no cell control and vehiculum controls. These checking samples were prepared in triplicates.
# The treated cells were incubated together with controls at 37 °C for 24 h in 5% CO2 atmosphere. After this time reagent from the kit CellTiter 96 AQueous One Solution Cell Proliferation Assay was added. […] The tested plate was incubated for 2 h at 37 °C and 5% CO2 and after this time, the absorbance was recorded at 490 nm using a 96-well plate reader (TECAN, Infinite M200, Grödig, Austria). […]
row,Structure (SMILES),IC50 of ester relative to parent salicylanilide (higher IC50) [fold]
1,O=C(Oc1ccc(Cl)cc1C(=O)Nc1ccc(Cl)c(Cl)c1)c1ccc(C(F)(F)F)cc1 [1e],3.7
2,O=C(Oc1cc(Cl)ccc1C(=O)Nc1ccc(C(F)(F)F)cc1)c1ccc(C(F)(F)F)cc1 [1p],3.7
3,O=C(Oc1ccc(Br)cc1C(=O)Nc1ccc(C(F)(F)F)cc1)c1ccc(C(F)(F)F)cc1 [1r],1.2
